From article PMC4992311, “The MarR-like protein PchR (YvmB) regulates expression of genes involved in pulcherriminic acid biosynthesis and in the initiation of sporulation in Bacillus subtilis”

Biological target: T1, YvmB-His6 (PchR) (UniProt P40762)
T1 sequence (looked up, limits assumed): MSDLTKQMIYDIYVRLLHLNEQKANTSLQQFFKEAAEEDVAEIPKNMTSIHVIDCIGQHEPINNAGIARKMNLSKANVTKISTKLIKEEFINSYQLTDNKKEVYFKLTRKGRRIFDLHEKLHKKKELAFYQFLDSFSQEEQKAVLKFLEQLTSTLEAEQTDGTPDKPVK
Test: EMSA
Conditions: three complexes; EMSA: 1x = 20 mM Tris pH 8, 100 mM KCl, 0.5 mM DTT, 5 mM MgCl2, 0.05 mg/ml BSA, 0.05 mg/ml poly(dIdC) (from 5x buffer); 50 ng Cy5 DNA in 20 uL; 20 min at 30 C; recombinant protein; protein details: C-terminal His6; label: 5' Cy5

TTCCAAATGTTTTTTAAGATTTTAATAATCATTTTCAATACCCATATCATGATAAATGTTTACTAGTAAACATTAGTCATTTTATCCCTTTTCCTTCCAAACGTCAATATGATCTGTGCCCAAATATTTGAAAATAAATGTAAACATCACATTTTCCACACACTTTTTACACGCATATTCAGCATGACATATCAACAAATAGTCTAAACACCAACAATTGACAACGAAAACAAGAAAACAAGAAAAGATAAAATAAAATTGTTCACCAGTAAACGATTTGTTTTATTGTTTCATCGTAAACTATTATTCCTAAGAAAGAAGGTAGCCT (double strand) [P3 probe (entire yvmB-yvmC intergenic region)]
binding result: binds

The exact form of at least one protein or probe is not confirmed. Tags and fusion partners may be left off the protein sequences shown.
